Taken from: PubChem BioAssay AID504764 (Drosophila RNAi Screening Center, 2011)

- Test: 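Genes whose knock-down alters Notch-dependent transcription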 (primary screen)
- Cell system: Drosophila Kc167 cells
- Reagents: long dsRNA against Drosophila genes
- Timing: about 5 days (4 days dsRNA, then 24 h after transfection)
- Conditions: transfection of constitutively active membrane-tethered Notch lacking the extracellular domain, read 24 h later
- Read-out: 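Firefly luciferase from an E(spl)m3 reporter with active Notch, plus control-promoter and uninduced reporter wells for normalisation; unnormalised counts, duplicate wells a and b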
- Scale: induced reporter light, run 1, well a and induced reporter light, run 1, well b: higher = more light from the Notch target reporter with active Notch; control promoter light, run 1, well a and control promoter light, run 1, well b: higher = more light from the viral control promoter (cell number, transfection, viability); uninduced reporter light, run 1, well a: higher = more light from the Notch target reporter without active Notch
- Active means: 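Wells with low control signal or poorly matching duplicates excluded; duplicates averaged; per source plate, z beyond ±2 for induced/control log2 ratio or beyond ±1.8 for induced/uninduced marks a hit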
- Meaning of the calls: active = modifier hit (raised or lowered Notch signal); inactive = not a hit
The screen tested about 22,000 reagents; shown is an unselected part of those that have a named target and a result. Of all reagents, 403 (1.9%) were called active. 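Unnormalised raw counts per well; ratio z-scores behind the hit calls and whether each hit raises or lowers signal are not deposited.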 Entries without a mark were called inactive. Reagents against one gene are numbered here. A plus sign joins genes that one reagent is predicted to hit. The record does not give: the amount of reagent.

predicted target	reagent	induced reporter light, run 1, well a	induced reporter light, run 1, well b	control promoter light, run 1, well a	control promoter light, run 1, well b	uninduced reporter light, run 1, well a
EMC5	1	61090	46195	40625	65560	2605
CG8569	1	1.22e5	1.21e5	97640	91215	7640
CG17221	1	1.94e5	1.31e5	1.97e5	1.83e5	11420
Nep1	1	2.20e5	2.19e5	2.44e5	2.36e5	16990
Nep1	2	16432	16235	28095	34590	5745
CG15561	1	1.40e5	1.23e5	1.45e5	1.43e5	9815
Dna2	1	1.76e5	1.56e5	2.19e5	2.33e5	12040
CG3546	1	1.71e5	1.63e5	2.93e5	2.98e5	14720
nompC	1	1.85e5	1.16e5	1.62e5	1.68e5	10980
ss	1	1.67e5	1.85e5	1.19e5	1.37e5	13090
FBXO11	1	99675	1.20e5	1.04e5	79740	7790
GATAd	1	2.20e5	2.76e5	2.08e5	2.41e5	17640
Apl	1	2.22e5	1.64e5	2.42e5	1.87e5	7130
CG5070	1	60620	81045	89970	85825	9155
Kap-alpha1	1	1.62e5	1.19e5	1.17e5	91330	8415
CG11723	1	1.09e5	2.09e5	2.22e5	2.08e5	17765
mor	1	85715 (active)	84295	85015	91210	11040
ArfGAP3	1	1.18e5	1.10e5	1.02e5	1.09e5	8880
CG14913	1	1.46e5	1.44e5	90315	1.03e5	19590
Nup54	1	2.25e5	1.45e5	1.38e5	1.31e5	15440
Lrr47	1	2.38e5	2.74e5	2.43e5	3.02e5	19105
Nha2	1	1.60e5	1.50e5	1.91e5	2.18e5	15420
Nha2	2	75200 (active)	83625	84845	88260	13060
Nha2	3	1.61e5	1.67e5	2.30e5	1.90e5	13550
CG5567	1	1.44e5	1.22e5	73645	77905	10745
CG1724	1	93225	80900	78290	1.10e5	10000
VhaSFD	1	1.89e5 (active)	1.88e5	1.82e5	1.73e5	11132
Sytbeta	1	1.42e5	1.68e5	1.80e5	1.55e5	10765
Sytbeta	2	1.81e5	2.03e5	2.54e5	2.41e5	9140
bip1	1	1.46e5	1.49e5	85340	58320	10642
CR14798	1	1.20e5	1.43e5	2.89e5	2.70e5	9345
CG2065	1	1.71e5	1.73e5	2.18e5	1.70e5	14655
Cyp313a2	1	66680	71085	48830	35555	4782
CG14160	1	1.59e5	1.58e5	1.80e5	1.83e5	9750
PNKP	1	96395	1.18e5	75555	67900	6040
CG17567 (retired record)	1	38605	27985	33200	27760	1845
Upf3	1	1.30e5	1.42e5	1.19e5	1.41e5	8345
CG42749	1	1.17e5	1.34e5	1.92e5	2.19e5	10200
CG42749	2	1.53e5	1.43e5	2.85e5	2.41e5	10715
lectin-29Ca	1	1.45e5	1.91e5	85155	1.25e5	19365
Fum3	1	1.33e5	1.12e5	2.27e5	1.44e5	9080
GatC + PolG2	1	2.20e5	2.07e5	1.91e5	1.75e5	16000
CG10222	1	66505	68830	95010	71315	4728
hd	1	78460	75090	79355	50415	6270
CG34249 (retired record)	1	1.26e5	1.38e5	2.18e5	2.39e5	13360
CG1504	1	90190	94635	90075	87495	9010
CkIIbeta	1	69370	67090	73740	1.05e5	5930
MED17	1	1.24e5 (active)	1.20e5	1.52e5	1.45e5	13082
LysE	1	1.05e5	1.33e5	1.86e5	1.77e5	7588
Sgs4	1	1.12e5	1.31e5	1.98e5	2.06e5	7242
Cpr67B	1	1.40e5	1.18e5	90585	54545	11565
Tmtc2	1	96140	1.08e5	78895	81465	14515
Wnt6	1	2.39e5	2.03e5	2.28e5	2.44e5	11255
Sesn	1	2.04e5	2.65e5	1.75e5	2.06e5	14645
Sesn	2	2.16e5	2.11e5	2.17e5	1.83e5	14580
Sesn	3	1.59e5	1.66e5	1.71e5	1.73e5	11475
galectin	1	1.50e5	1.64e5	1.33e5	1.07e5	11405
l(2)k09848	1	1.36e5	1.40e5	1.27e5	1.54e5	12215
Rtf1	1	2.00e5	1.86e5	1.16e5	1.41e5	16125
CG10970	1	1.79e5	1.66e5	2.37e5	1.88e5	12380
Hmr	1	1.14e5	1.32e5	2.57e5	2.53e5	8935
tau	1	87720	71555	98585	91490	9715
CG2961	1	89185	99165	1.84e5	1.40e5	5740
CG4074 + CG4186	1	1.61e5	1.50e5	1.28e5	1.40e5	8235

Records listed so far whose gene name begins with T or t (2):
predicted target	reagent	induced reporter light, run 1, well a	induced reporter light, run 1, well b	control promoter light, run 1, well a	control promoter light, run 1, well b	uninduced reporter light, run 1, well a
Tmtc2	1	96140	1.08e5	78895	81465	14515
tau	1	87720	71555	98585	91490	9715
